# doi:10.1101/2025.02.10.637577
# Sequences of proteins named here, by UniProt entry; tags and fusion partners are left off. A change or cut given only in a name is not applied to a line headed by its entry. Residues count along the entry.
# UniProt Q8NBT3: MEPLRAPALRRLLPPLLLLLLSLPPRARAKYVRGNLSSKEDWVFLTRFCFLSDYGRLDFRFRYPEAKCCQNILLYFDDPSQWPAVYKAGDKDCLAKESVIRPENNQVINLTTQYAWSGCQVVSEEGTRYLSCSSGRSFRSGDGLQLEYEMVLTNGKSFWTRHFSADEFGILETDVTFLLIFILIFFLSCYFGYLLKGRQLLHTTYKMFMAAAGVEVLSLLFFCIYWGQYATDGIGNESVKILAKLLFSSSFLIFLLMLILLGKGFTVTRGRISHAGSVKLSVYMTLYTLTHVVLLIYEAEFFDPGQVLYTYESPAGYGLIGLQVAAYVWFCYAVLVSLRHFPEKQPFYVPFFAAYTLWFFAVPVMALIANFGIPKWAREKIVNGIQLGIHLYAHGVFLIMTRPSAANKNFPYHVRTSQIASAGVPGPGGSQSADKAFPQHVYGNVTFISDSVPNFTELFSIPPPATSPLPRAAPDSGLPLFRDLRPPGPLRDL
# UniProt Q8VIM6, residues 23-1809: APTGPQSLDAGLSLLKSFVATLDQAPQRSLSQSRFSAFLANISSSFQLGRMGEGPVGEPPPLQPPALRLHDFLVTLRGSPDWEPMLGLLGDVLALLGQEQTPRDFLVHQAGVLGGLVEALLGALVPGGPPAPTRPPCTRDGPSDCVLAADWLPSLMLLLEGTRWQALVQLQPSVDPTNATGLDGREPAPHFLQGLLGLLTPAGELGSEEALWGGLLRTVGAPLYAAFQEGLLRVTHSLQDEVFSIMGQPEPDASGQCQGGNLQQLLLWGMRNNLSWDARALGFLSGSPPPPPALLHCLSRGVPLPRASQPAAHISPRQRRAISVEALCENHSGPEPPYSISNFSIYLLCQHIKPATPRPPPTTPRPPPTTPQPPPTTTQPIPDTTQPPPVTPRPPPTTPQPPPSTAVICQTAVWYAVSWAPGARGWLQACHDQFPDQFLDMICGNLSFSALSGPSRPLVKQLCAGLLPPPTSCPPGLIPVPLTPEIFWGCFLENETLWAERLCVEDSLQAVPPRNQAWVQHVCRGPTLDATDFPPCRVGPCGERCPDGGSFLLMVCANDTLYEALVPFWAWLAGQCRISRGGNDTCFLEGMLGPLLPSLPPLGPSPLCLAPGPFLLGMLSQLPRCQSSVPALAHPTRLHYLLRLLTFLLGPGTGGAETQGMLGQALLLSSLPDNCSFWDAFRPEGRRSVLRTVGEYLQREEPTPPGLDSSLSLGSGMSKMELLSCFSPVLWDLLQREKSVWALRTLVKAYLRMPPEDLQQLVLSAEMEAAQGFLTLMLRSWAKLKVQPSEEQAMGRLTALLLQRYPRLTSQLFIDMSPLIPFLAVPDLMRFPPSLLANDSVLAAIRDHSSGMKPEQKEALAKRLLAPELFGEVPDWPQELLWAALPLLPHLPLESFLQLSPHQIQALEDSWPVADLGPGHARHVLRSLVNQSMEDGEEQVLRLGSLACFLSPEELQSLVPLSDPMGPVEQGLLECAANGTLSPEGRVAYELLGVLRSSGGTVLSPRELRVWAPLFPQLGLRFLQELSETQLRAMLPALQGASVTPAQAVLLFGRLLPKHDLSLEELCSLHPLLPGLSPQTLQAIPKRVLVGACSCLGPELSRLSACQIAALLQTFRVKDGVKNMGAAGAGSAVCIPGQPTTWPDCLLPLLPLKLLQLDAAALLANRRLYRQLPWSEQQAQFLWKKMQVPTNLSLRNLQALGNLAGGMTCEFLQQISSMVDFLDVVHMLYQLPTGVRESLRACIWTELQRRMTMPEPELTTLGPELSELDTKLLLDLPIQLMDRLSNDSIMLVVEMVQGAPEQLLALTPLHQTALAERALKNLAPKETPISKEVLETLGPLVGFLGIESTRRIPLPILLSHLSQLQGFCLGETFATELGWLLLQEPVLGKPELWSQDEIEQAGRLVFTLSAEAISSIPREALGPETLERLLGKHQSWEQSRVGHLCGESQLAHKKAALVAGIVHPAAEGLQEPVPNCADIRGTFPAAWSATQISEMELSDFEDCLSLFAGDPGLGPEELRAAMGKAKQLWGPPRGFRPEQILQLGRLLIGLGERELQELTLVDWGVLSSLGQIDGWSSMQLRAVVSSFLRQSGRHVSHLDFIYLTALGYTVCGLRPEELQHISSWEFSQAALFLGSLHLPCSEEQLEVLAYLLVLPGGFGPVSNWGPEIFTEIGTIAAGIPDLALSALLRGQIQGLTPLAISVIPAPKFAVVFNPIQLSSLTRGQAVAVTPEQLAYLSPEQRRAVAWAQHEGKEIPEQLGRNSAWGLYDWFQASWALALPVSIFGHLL
# Results are given in words; binding and its absence hold for the method and conditions named. Binding seen in cells or lysates may run through a third protein. Binding can be weak; no strength is given. Sequences can lack the tags named with a protein.
# T1: TUB-V5 (C-terminal V5-tagged rat tubby) (rat) (UniProt O88808)
# T1 sequence: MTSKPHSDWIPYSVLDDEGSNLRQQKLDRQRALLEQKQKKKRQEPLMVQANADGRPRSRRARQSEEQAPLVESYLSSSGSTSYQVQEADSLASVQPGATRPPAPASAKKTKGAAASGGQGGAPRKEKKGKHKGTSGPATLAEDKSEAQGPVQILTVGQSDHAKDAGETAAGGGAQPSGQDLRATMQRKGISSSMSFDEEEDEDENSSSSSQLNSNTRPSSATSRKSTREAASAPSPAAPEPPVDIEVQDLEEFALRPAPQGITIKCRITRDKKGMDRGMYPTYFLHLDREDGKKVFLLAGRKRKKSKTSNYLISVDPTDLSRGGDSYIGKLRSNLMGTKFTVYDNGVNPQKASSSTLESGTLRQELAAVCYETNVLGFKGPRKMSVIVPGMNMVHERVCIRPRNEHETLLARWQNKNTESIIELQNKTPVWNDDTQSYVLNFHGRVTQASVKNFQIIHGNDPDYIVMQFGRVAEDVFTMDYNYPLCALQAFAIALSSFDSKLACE
# B1: TUB-V5 (C-terminal V5-tagged rat tubby) (protein, UniProt O88808 1-505)
# chain: T1 sequence
# B2: TUB-MYC (C-terminal MYC-tagged rat tubby) (protein, UniProt O88808 1-505)
# chain: T1 sequence
# Assays:
# Assay in all cases: co-IP
# [1] = molecular target: T1, TUB-V5 (C-terminal V5-tagged rat tubby) (rat)
# [2] = molecular target: TMEM145-Δ7TM-FLAG (not stated (human or mouse cDNA cloned)) (UniProt Q8NBT3)
# [3] = molecular target: TMEM145-FLAG (C-terminal FLAG-tagged TMEM145, wild type) (not stated (human or mouse cDNA cloned)) (UniProt Q8NBT3)
# [4] = molecular target: TMEM145-ΔGOLD-FLAG (not stated (human or mouse cDNA cloned)) (UniProt Q8NBT3)
Molecule,binding [1],binding [2],binding [3],binding [4]
"TMEM145-FLAG (C-terminal FLAG-tagged TMEM145, wild type) (from UniProt Q8NBT3)",binds,–,–,–
STRC-MYC (C-terminal MYC-tagged mouse stereocilin) (from UniProt Q8VIM6 23-1809),–,binds,binds,no binding
B1,–,–,binds,–
B2,–,no binding,binds,binds
